Test results from publication doi:10.1101/2020.06.07.138792.
No constants are given. Whether binding was seen depends on the method and setting. In cells and extracts the contact can be indirect. Some binding calls cover weakened binding; strength is not graded here.

Amino acid sequences for entries named in this document (tags omitted).
UniProt Q14839: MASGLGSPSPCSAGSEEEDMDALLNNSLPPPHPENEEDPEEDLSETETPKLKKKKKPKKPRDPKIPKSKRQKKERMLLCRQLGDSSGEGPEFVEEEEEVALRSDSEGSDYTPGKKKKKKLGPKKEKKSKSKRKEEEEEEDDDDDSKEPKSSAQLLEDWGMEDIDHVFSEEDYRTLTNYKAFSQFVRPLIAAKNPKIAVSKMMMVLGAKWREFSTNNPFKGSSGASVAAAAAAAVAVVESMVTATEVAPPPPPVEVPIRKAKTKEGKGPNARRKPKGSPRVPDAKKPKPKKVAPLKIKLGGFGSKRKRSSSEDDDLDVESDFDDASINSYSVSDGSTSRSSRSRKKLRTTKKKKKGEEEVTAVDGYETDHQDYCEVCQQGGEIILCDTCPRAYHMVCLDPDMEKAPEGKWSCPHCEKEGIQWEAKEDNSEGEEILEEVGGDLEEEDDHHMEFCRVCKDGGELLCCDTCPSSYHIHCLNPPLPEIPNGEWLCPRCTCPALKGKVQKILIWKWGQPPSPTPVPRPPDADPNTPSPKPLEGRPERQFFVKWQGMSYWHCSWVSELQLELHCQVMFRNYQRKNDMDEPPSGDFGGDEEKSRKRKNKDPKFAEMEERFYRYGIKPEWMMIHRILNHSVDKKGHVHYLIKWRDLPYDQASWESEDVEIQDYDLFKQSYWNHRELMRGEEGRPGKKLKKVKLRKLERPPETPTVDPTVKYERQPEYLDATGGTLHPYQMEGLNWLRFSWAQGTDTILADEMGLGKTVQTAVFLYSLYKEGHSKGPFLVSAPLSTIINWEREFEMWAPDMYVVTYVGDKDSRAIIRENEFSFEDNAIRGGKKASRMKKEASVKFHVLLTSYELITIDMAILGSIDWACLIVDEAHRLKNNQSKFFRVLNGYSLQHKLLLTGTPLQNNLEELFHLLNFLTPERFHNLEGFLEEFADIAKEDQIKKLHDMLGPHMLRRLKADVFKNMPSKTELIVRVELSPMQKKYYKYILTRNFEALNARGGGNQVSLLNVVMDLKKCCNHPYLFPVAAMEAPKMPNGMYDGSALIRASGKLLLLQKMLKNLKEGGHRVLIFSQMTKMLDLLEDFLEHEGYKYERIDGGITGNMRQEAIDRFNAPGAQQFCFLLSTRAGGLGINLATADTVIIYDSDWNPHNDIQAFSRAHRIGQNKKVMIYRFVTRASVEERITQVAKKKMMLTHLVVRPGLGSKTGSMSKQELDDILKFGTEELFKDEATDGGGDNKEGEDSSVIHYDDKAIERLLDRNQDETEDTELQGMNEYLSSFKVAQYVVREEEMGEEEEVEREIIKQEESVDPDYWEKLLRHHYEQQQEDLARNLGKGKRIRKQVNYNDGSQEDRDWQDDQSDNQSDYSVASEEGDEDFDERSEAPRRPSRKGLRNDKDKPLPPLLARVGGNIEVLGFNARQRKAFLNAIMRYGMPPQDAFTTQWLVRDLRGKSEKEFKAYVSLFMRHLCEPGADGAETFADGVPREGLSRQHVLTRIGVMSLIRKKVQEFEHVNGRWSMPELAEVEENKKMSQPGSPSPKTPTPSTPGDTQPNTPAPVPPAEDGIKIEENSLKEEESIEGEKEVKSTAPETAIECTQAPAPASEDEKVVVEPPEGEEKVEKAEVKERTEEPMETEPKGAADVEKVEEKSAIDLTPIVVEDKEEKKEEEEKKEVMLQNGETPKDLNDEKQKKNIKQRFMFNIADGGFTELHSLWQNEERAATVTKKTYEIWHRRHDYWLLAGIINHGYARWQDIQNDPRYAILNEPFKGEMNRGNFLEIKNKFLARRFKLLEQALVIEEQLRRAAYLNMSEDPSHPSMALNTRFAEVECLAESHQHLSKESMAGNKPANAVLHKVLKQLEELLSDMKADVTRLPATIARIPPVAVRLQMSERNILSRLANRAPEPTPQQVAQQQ
UniProt Q13547: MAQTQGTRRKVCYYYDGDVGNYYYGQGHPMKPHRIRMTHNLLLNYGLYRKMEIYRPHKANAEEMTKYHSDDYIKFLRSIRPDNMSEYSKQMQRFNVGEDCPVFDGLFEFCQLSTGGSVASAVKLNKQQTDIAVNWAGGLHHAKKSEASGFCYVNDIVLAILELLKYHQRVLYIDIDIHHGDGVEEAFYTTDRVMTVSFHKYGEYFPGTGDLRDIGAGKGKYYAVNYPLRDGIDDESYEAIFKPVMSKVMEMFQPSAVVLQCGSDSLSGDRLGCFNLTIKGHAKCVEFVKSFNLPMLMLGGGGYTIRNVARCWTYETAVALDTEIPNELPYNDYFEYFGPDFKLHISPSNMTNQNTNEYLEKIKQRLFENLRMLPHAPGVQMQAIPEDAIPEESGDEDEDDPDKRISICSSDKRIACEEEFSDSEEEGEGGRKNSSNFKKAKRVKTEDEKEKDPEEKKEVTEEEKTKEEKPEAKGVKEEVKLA
UniProt Q92769: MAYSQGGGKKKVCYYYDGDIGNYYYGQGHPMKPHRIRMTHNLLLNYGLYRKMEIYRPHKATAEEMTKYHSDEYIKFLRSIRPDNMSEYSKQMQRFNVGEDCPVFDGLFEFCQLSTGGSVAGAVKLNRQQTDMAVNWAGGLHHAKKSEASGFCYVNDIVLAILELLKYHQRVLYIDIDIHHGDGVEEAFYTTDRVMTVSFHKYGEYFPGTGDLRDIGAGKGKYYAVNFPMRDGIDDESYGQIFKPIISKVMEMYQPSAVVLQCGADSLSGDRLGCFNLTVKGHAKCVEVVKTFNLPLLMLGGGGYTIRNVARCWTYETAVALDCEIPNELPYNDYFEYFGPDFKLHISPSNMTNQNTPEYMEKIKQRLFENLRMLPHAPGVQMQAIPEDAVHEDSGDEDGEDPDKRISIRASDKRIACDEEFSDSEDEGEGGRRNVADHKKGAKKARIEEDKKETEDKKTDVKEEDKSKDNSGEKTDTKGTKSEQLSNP

Biological target: T1, endogenous TyrRS (human (endogenous in HEK293)) (UniProt P54577)
T1 sequence: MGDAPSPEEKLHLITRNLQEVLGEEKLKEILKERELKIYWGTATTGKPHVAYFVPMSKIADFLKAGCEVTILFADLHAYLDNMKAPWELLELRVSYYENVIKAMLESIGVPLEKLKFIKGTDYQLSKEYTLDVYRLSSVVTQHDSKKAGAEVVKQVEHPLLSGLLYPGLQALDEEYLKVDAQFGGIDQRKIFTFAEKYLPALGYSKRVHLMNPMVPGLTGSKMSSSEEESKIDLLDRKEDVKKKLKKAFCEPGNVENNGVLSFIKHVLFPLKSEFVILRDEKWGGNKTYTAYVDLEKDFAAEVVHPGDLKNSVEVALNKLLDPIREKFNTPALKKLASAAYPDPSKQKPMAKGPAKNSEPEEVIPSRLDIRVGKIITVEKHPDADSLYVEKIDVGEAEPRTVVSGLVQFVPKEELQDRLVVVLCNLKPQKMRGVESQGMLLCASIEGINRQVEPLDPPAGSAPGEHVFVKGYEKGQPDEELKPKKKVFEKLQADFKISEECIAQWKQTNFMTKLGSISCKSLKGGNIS
Assay: co-IP

Substance | binding
CHD4 (from UniProt Q14839 1-1912) | binds
HDAC1 (from UniProt Q13547 1-482) (enzyme) | binds
HDAC2 (from UniProt Q92769 1-488) (enzyme) | binds
